No constants are given. Whether binding was seen depends on the method and setting. In cells and extracts the contact can be indirect.
Biological target: T1, ASCL1 (achaete-scute homolog 1), endogenous in Lu139 cells (human (endogenous in Lu139)) (UniProt P50553)
T1 sequence: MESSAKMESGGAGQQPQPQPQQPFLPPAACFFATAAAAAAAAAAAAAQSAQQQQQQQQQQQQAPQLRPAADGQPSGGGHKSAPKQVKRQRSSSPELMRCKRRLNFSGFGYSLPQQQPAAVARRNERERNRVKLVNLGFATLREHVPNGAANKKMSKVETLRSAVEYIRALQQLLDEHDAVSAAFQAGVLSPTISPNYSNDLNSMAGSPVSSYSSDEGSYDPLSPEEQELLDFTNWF
Test: proximity ligation; Duolink flowPLA Detection Kit Green, read by flow cytometry; Lu139-TetO-NEUROD1 cells with or without doxycycline, fixed with 4% paraformaldehyde, permeabilised with 0.1% Triton X-100; anti-ASCL1 (24B72D11) and anti-NEUROD1 (EPR20766) antibodies at 1:50

The chains behind the UniProt entries cited, without tags or fusion partners.
UniProt Q13562: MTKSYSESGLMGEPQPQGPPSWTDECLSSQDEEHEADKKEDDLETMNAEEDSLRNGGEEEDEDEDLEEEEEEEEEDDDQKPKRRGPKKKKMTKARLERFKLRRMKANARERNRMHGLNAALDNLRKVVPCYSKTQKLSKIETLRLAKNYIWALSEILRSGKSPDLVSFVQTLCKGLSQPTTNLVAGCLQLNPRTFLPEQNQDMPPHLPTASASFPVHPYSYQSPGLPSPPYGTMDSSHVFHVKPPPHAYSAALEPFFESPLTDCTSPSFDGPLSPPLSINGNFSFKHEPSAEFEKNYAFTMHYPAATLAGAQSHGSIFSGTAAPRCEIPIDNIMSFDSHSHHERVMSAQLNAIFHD

For “NEUROD1 (neurogenic differentiation factor 1), exogenous, doxycycline-induced, with C-terminal HA-tag (from UniProt Q13562 1-356)”, the binding was “no binding”.

Source: PMC11906894
